Assay [1] has as its target T1, Vitamin D receptor (human (endogenous in HEK293)) (UniProt P11473).
T1 sequence: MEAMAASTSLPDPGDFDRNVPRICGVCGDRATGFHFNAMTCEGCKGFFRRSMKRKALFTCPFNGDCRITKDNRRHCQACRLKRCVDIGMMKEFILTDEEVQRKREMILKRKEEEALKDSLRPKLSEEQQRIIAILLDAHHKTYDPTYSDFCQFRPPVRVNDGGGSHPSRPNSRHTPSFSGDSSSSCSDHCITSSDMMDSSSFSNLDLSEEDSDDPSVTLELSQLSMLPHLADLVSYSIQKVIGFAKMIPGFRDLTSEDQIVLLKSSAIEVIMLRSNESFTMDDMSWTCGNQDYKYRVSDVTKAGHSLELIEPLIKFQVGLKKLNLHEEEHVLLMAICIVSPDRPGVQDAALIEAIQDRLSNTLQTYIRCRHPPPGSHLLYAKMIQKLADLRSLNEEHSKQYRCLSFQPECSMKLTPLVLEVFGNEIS
Description: co-IP; HEK293 cells transfected with pCS4-3Flag-Runx2 and treated with 10^-7 mol/l 1,25(OH)2D3 for 24 hours; nuclear extracts (130 ug) precipitated with mouse monoclonal anti-Vdr antibody and protein G Sepharose at 4 C; blot with anti-Flag.

Protein sequences, listed by entry. Tags and fused reporters are not part of them.
UniProt Q08775: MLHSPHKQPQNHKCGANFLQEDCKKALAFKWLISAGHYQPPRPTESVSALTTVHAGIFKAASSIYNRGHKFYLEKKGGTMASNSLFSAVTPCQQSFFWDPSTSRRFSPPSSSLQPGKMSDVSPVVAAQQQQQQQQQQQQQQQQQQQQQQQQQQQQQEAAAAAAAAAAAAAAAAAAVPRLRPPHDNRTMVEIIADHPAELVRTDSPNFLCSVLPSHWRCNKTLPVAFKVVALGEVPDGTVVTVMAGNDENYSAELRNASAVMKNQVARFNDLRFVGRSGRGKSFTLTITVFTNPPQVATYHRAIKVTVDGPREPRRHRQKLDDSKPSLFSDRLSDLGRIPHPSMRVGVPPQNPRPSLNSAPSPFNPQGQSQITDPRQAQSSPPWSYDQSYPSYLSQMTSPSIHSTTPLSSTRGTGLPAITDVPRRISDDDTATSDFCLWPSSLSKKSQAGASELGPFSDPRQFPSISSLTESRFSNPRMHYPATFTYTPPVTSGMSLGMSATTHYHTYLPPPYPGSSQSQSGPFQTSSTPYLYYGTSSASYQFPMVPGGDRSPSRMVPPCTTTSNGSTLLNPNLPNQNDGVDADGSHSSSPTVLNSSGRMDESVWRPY

For assay [2], the target named is T1, Vitamin D receptor (human (endogenous in HEK293)). As to the kind of experiment: co-IP; HEK293 cells transfected with pCS4-3Flag-Runx2, cultured without 1,25(OH)2D3; nuclear extracts precipitated with mouse monoclonal anti-Vdr antibody and protein G Sepharose at 4 C; blot with anti-Flag.

No constants are given. Whether binding was seen depends on the method and setting. Binding seen in cells or lysates may run through a third protein. Some binding calls cover weakened binding; strength is not graded here.

Results on 1 substance are retold here after article PMC3861528.

Regarding “3Flag-Runx2 (runt-related transcription factor 2) (from UniProt Q08775 1-607)”, the binding result is “binds” in assay [1] and “no binding (condition: cells not treated with 1,25(OH)2D3)” in assay [2].
